{
  "source": "patent US20170065561A1",
  "about": "“METHODS OF CANCER THERAPY” (CAMBRIDGE ENTERPRISE LIMITED, priority 2014, published 2017)",
  "origin": "cited, not measured here",
  "test_system": "wild type C57BL/6 mice",
  "conditions": "rising doses (600 to 2400 mg/kg) for four months; cited from earlier work",
  "data": [
    {"smiles": "CCCCN1C[C@H](O)[C@@H](O)[C@H](O)[C@H]1CO", "note": "[N-butyldeoxynojirimycin]", "values": [
      {"measurement": "ratio of B to T cell populations in spleens and thymuses", "result": "small decrease"},
      {"measurement": "size of lymphoid organs", "result": "reduced the size of lymphoid organs"}
    ]}
  ]
}
